Some of the results follow. Further columns of the screen follow, without active or inactive calls. Most of these compounds were active or inconclusive in the main read-out, so they are no random draw. Words in brackets tell the shape of the fitted curve; partial curves, single points and poor fits give uncertain potencies.
Assay: qHTS Assay to Find Inhibitors of Chronic Active B-Cell Receptor Signaling
Conditions: ABC-DLBCL IkBa-CBG/CBR reporter, luminescence ratio (green luciferase fused to IkBa over red control in TMD8 lymphoma cells), 4 h
In short: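 Cell line TMD8 (human ABC DLBCL), stably expressing tet-inducible CBG68-IkBa fusion and CBR; IMDM/0.5% FBS; cpd up to 46 uM; dox induction, 4 h, 37C/5% CO2; dual luminescence; green/red ratio; MG132 control.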

[1] = measured here: CBR red luminescence, cell number

Row | SMILES | AC50 [1] | AC50 (measured here: IkBa-CBG green luminescence)
1 | CN1CCN(c2ccc(NC(=O)c3cccc(OCc4ccccc4)c3)cc2)CC1 | 29.1 µM [falling, single point] | 
2 | CC1=NN(C(N)=S)C(=O)C1N=Nc1ccc(F)cc1 (stereo not drawn) |  | 0.794 µM [falling, full curve]
3 | C=C(C)C(=O)OCCCCCCOc1ccc(C(=O)O)cc1 | 29.1 µM [falling, single point] | 
4 | Cc1nn(Cc2ccccc2)c(Cl)c1C(=O)NCCc1ccccc1 | 11.6 µM [rising, partial curve] | 
5 | Cc1c(C(=O)N/N=C/c2ccccc2)[nH]c2c([N+](=O)[O-])cccc12 | 0.447 µM [falling, partial curve, poor fit] | 
6 | Nc1nc(N(Cc2ccccc2)Cc2ccccc2)nc(C(F)(F)F)n1 | 3.26 µM [rising, full curve, poor fit] | 
7 | Cc1cccnc1NC(=O)C(c1ccccc1)c1ccccc1 | 5.62 µM [rising, single point] | 
8 | N#Cc1c(N)nc2c(c1-c1ccc3c(c1)OCO3)CCCCCC2 | 6.31 µM [falling, single point] | 
9 | Cc1oc2cc(Br)c(O)c(Br)c2c1C(=O)c1ccccc1 | 35.5 µM [rising, single point] | 
10 | O=C(NCc1cccnc1)C(=O)c1c[nH]c2ccccc12 | 14.1 µM [falling, partial curve] | 
11 | CSc1nsc(SCC(=O)NC2CCCCC2)n1 | 20.6 µM [falling, single point] | 
12 | N[C@@H](Cc1ccccc1)C(=O)N1CCC(C(=O)NCC(=O)Nc2ccc(F)cc2)CC1 | 11.2 µM [falling, single point] | 
13 | O=C1C2ON(c3ccccc3)C(c3cccnc3)C2C(=O)N1Cc1ccccc1 (stereo not drawn) | 11.2 µM [falling, partial curve, poor fit] | 
14 | CN1C[C@@H]2C[C@@H](C3=Cc4cc(Cl)ccc4OC3)N3CCC[C@@]23C1=O | 5.62 µM [falling, full curve] | 
15 | CC(C)(C)NCC(O)COc1cccc2c1C[C@H](O)[C@H](O)C2 (stereo partly drawn) | 0.731 µM [falling, partial curve, poor fit] | 
16 | CCOC(=O)C1=C(COC(=O)CCOc2ccc(OCC)cc2)NC(=O)NC1C (stereo not drawn) | 0.517 µM [rising, partial curve, poor fit] | 
17 | O=C(O)C1C2CCC(O2)C1C(=O)Nc1cccc(F)c1 (stereo not drawn) | 35.5 µM [rising, partial curve, poor fit] | 
18 | CCOC(=O)c1cc2c(ccn2C)n1CC(=O)Nc1ccc(F)cc1 | 35.5 µM [falling, single point] | 

Reformatted: two of the compounds above.
O=C1C2ON(c3ccccc3)C(c3cccnc3)C2C(=O)N1Cc1ccccc1 (stereo not drawn)
  AC50 [1]: 11.2 µM [falling, partial curve, poor fit]
CN1C[C@@H]2C[C@@H](C3=Cc4cc(Cl)ccc4OC3)N3CCC[C@@]23C1=O
  AC50 [1]: 5.62 µM [falling, full curve]

From PubChem BioAssay AID493014 (National Center for Advancing Translational Sciences (NCATS), 2011)
